Test results reported in paper PMC3440354.

Each sequence was assayed on p53, C-terminus truncated, constitutively active (assay: competition with a labelled probe). Details: 200-fold excess vs labeled consensus, sites 1-14 weak (text: weakly or not at all); EMSA: 0.5 ug p53, 25,000 cpm 32P probe, 20 min at room temperature; competitor 200-fold molar excess added 15 min before probe; salt and pH not given; recombinant protein; label: 32P 5' end (direct EMSA), unlabeled as ….

Binding result, binds more weakly:
AACCAAGCCTGACAGGTCGAGCCCTGGCTGTGTTTG (double strand) [Pax2 site 14], AAGGAAGATAAGGCTACTGCGGTTACTACCACCTTAGAGCTTCTGGCTCC (double strand) [Pax2 site 2], AGGCGTCTGGACTGCCCAGACTCCGGGGAGGGGGTGCGCGCCACCGCGTGTGGG (double strand) [Pax2 site 9], CAGACATACCAAGACTTAACTTAAGCACACCCAACAAGAGTTCCTTTATG (double strand) [Pax2 site 1], CCTGGGAAGGCATGCCTGAGTTTTCTGGAGCTACATAGAAATTAGACTATCACTAGCCCTCAT (double strand) [Pax2 site 5], GAACTCAGCGCAAGGGTAGCCGAGTTAGGACAGGGGCTGCGGACTCGCGGGCGTCTGGGA (double strand) [Pax2 site 10], GAATCTATTGCCTTTGTCTGACAAGTCATCCATCTCCCGG (double strand) [Pax2 site 12], GCATCCTCTGTCACTGCCGCGGACAAGCCGCTGCGCACCGTCTCCC (double strand) [Pax2 site 8], GGGAGCGAGTGCGGGCCAGGCTGCAGAGACTGGGCCAGCGGCT (double strand) [Pax2 site 7], GGTTAGCAGACAGGATCTCTGCCTGCACTTTACTTATGCATGATCCGCC (double strand) [Pax2 site 13], TGTGGCAGATACTTGCGTAAGTGCAACTTCAAAAGTG (double strand) [Pax2 site 6], TTCTGGCTCCCCAGTATGGGAGCTGACCCTTTTAGGCTGA (double strand) [Pax2 site 3], TTGATTATCTAGACCCAGAAACCAGCTGGAAAACTAAC (double strand) [Pax2 site 4], TTGGCCGGTGGATGGCAGGGCTGGGCGAGTTAGGACTGAGAGCCTGGCTTCGGAGTGCCG (double strand) [Pax2 site 11]

Each sequence was assayed on p53, C-terminus truncated, constitutively active (assay: EMSA). Details: stated to show p53 binding, Pax2 sites weak; EMSA: 0.5 ug p53, 25,000 cpm 32P probe, 20 min at room temperature; competitor 200-fold molar excess added 15 min before probe; salt and pH not given; recombinant protein; label: 32P 5' end (direct EMSA), unlabeled as ….

Binding result, binds more weakly:
GCATCCTCTGTCACTGCCGCGGACAAGCCGCTGCGCACCGTCTCCC (double strand) [Pax2 site 8], GGGAGCGAGTGCGGGCCAGGCTGCAGAGACTGGGCCAGCGGCT (double strand) [Pax2 site 7]

The exact form of at least one protein or probe is not confirmed. A weaker result is weaker than the reference pair of the same experiment. For some of these results: At least one verdict rests on a figure or table, not on a statement of the authors.
